From ChEMBL document CHEMBL4651402, “Screening of ~5500 FDA-approved drugs and clinical candidates for anti-SARS-CoV-2 activity” (2021)

Tested on: SARS-CoV-2
Assay: microbe, parasite or virus in culture
Details: Severe acute respiratory syndrome coronavirus 2, Vero C1008, 48 h

| Compound | IC50 | IC50 (read-out: pIC50 (converted)) |
| --- | --- | --- |
| Cc1ccc(C(=O)NCCCCCC(=O)Nc2ccccc2N)cc1 | > 20 µM | > 20 µM |
| CC(C)NC[C@@H](O)COc1cccc2ccccc12 [DEXPROPRANOLOL] | > 20 µM | > 20 µM |
| CN(C)CCOC(c1ccccc1)c1ccccc1 [DIPHENHYDRAMINE] | > 20 µM | > 20 µM |
| N#Cc1ccc(C2CCCc3cncn32)cc1 (configuration not stated) [FADROZOLE] | > 20 µM | > 20 µM |
| CN1[C@@H]2CC[C@H]1C[C@@H](OC(=O)C(O)c1ccccc1)C2 (some centres not stated) [HOMATROPINE] | > 20 µM | > 20 µM |
| CC(C)NC[C@H](O)COc1cccc2ccccc12 [LEVOPROPRANOLOL] | > 20 µM | > 20 µM |
| CNCCCC12CCC(c3ccccc31)c1ccccc12 [MAPROTILINE] | > 20 µM | > 20 µM |
| CN1CC[C@]23c4c5ccc(O)c4O[C@H]2[C@@H](O)C=C[C@H]3[C@H]1C5 [MORPHINE] | > 20 µM | > 20 µM |
| CC(C)NCC(O)COc1cccc2ccccc12 (configuration not stated) [PROPRANOLOL] | > 20 µM | > 20 µM |
| OCCOCCN1CCN(C2=Nc3ccccc3Sc3ccccc32)CC1 [QUETIAPINE] | > 20 µM | > 20 µM |
| CCC(C)C(C(=O)OCC[N+](C)(CC)CC)c1ccccc1 (configuration not stated) [VALETHAMATE] | > 20 µM | > 20 µM |
